Data as given in publication PMC8590370.
These are yes or no findings as the source states them, for the method shown. Binding seen in cells or lysates may run through a third protein. Some binding calls cover weakened binding; strength is not graded here.

The chains behind the UniProt entries cited, without tags or fusion partners.
UniProt P51858: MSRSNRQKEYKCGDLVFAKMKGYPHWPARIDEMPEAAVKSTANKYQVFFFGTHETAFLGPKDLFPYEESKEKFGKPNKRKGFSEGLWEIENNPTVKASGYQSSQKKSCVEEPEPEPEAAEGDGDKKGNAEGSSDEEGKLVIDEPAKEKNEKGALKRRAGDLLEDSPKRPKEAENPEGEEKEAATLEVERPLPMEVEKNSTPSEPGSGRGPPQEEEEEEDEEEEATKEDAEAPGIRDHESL
UniProt P05412: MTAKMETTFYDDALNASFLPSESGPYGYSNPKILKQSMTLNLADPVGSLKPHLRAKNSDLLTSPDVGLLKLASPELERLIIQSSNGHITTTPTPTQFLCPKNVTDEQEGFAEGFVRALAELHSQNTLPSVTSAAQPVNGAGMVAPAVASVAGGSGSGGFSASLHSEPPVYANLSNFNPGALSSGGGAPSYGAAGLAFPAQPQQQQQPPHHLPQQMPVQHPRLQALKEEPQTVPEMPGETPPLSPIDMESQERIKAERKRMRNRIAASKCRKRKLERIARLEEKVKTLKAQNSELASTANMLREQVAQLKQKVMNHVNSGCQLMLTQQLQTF

Target: hepatoma-derived growth factor (HDGF) (human (endogenous in breast cancer cells MCF-7, MDA-MB-231)) (UniProt P51858)
Assay: co-IP; endogenous proteins of breast cancer cells; Pierce Co-IP Kit; 3000 µg of protein incubated with anti-NAP1L1, anti-HDGF, anti-c-Jun or anti-IgG antibodies for 12 h at 4 °C; Western blot; anti-IgG as negative control

binding: binds
Substance: c-Jun (from UniProt P05412 1-331)
